Measured values from publication PMC4643968.
These are yes or no findings as the source states them, for the method shown. Binding seen in cells or lysates may run through a third protein.

The chains behind the UniProt entries cited, without tags or fusion partners.
UniProt Q48252: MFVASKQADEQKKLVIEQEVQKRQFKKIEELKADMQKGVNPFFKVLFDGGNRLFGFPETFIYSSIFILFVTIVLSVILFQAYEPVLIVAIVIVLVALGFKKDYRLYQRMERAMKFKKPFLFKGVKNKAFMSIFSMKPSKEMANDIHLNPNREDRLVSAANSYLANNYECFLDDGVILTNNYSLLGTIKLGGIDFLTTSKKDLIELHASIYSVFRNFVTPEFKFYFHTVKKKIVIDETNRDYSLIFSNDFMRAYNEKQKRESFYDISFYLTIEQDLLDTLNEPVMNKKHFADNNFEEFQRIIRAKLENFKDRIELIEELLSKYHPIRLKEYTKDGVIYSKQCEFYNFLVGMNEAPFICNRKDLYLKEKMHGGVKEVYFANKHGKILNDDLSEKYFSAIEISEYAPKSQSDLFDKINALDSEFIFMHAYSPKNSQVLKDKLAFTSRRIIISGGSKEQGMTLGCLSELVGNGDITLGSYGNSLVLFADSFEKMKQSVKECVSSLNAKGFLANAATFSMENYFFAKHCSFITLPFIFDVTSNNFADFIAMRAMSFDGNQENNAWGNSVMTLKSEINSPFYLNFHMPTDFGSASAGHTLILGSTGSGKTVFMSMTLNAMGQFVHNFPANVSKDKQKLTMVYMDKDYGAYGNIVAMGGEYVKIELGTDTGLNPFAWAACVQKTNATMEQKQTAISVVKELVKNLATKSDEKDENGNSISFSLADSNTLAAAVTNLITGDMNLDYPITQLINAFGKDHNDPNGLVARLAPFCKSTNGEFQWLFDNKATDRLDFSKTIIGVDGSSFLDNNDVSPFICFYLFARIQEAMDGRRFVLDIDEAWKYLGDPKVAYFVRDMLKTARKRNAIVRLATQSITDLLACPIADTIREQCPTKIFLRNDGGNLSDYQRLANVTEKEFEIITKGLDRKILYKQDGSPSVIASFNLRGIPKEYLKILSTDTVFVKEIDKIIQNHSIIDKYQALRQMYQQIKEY
UniProt B5Z6P9: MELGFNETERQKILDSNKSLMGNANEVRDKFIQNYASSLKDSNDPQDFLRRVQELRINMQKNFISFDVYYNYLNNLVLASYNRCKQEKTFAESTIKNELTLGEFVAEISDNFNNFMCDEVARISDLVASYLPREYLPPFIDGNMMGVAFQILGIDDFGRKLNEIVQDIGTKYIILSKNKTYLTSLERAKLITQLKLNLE

Molecular target: CagE (HP0544), VirB4 homologue of the Helicobacter pylori Cag-T4SS, endogenous in strain P12 (Helicobacter pylori P12 (endogenous in P12)) (UniProt Q48252)
Test: co-IP; Triton X-100 solubilised extracts of Hp P12, P12ΔcagE (negative control) and P12ΔcagE/cagE; pre-cleared with pre-immune serum; anti-CagE, anti-CagV or anti-Cagβ antibody overnight at 4°C, protein-A agarose; lysis buffer 1X PBS pH 7.4, 2 mM EDTA, 2 mM DTT, 1% Triton X-100; Western blot

Q: For “CagZ, endogenous in strain P12 (from UniProt B5Z6P9 1-199)”, which binding is on record?
A: no binding
